Drawing on paper PMC4227133, this text covers binding for one molecule.

Results are given in words; binding and its absence hold for the method and conditions named. Tags and fused reporters may be left off the sequences shown.

The assay addresses ceHexim F156L fused to the Gal4 DNA-binding domain (C. elegans). As to the kind of experiment: two-hybrid; C. elegans proteins: ceHexim fused to the Gal4 DNA-binding domain, cit-1.2 fused to the Gal4 activation domain; growth in LTU medium (lacking uracil).

B1: C. elegans Cyclin T (cit-1.2), wild type, fused to the Gal4 activation domain (protein, UniProt P34424 1-555)
chain: MSNSNKLIAEKNGSRYGRMIHPWLRKKQDMLADTPSRREGMTYEEELSKRQQGGVFIFDIAMQLTHGKGEHGLSGVAATLFNRFFNVHSLKRCDFRDVAAACVFLAGKNEDAPKKLKYVVTQLWQFKYPHNKQFQSEQHFLDQCNVVTLIEDVLLKTISFDINVDLPHQYVLKLMRDVEKGRNVYKDMVKTAYYMATDVLIITDWSVRYSCASIATACVNIAAFFHNINMDDIVPFELSDRWYRLEDQSMTREEVEAMTKEFLDIFSRNPQFHIGSLKKIDPLGKVKIVGMPPQVSSTVTPSGSSSNLKKIDLESYKGRPKPLSNSSDSPSTRPSFLPDVKNQKVVEQELMEQRMKEAAQQKIHRNGHRPSSSSHPLHHHSTSSSASNNSNHQNRSSSGLSAHQHQKPYNEDSRSAKRSMMYEETNSSKKPRIDYKMSFVASSSTTIATMHNDHFSQTTHQQNISTYARGVNEMMLNQVAPPPLMSVSAQPSTYQKMCMEYQRNPADSRHTMSSTQQISPPDEPSPPVSQILLPPPPPPPILPPRLDEMEEGELV
For the molecule B1, the binding entry is “no binding”.
